# Results as given in the supplement of paper PMC6411743.
# Amino acid sequences for entries named in this document (tags omitted). A change or cut given only in a name is not applied to a line headed by its entry.
# UniProt Q9H0S4: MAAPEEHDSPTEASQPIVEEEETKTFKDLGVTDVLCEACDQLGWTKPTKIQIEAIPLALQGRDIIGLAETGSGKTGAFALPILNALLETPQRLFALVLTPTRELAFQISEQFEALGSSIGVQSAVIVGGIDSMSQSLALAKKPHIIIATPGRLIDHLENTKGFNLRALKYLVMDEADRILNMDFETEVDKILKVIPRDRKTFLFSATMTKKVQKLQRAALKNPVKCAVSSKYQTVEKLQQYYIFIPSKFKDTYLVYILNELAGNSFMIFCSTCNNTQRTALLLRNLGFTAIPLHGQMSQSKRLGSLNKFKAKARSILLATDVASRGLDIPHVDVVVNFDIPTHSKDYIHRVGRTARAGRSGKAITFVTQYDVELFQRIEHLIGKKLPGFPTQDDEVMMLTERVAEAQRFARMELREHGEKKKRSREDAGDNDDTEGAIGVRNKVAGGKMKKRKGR
# UniProt Q9H4E7, whole entry: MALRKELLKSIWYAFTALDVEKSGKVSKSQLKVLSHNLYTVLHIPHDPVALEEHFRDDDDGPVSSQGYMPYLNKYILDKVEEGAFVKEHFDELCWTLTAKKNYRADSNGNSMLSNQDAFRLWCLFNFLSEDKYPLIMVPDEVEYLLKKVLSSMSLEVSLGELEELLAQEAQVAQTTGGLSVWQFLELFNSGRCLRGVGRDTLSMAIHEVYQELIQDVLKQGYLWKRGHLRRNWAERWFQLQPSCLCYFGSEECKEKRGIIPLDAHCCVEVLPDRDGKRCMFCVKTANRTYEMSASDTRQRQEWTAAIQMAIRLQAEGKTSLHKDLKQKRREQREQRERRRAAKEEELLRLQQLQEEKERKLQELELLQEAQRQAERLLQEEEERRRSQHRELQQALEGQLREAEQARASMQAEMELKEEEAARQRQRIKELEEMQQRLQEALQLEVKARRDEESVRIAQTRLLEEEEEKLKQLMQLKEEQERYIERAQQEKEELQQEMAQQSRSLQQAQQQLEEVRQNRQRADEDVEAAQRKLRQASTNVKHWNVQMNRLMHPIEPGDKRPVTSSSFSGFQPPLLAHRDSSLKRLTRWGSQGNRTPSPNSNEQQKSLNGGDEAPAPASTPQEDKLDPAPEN
# UniProt Q9BZL1: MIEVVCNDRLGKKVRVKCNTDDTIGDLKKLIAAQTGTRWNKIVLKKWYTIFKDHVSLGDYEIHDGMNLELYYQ
# UniProt Q9HAV7: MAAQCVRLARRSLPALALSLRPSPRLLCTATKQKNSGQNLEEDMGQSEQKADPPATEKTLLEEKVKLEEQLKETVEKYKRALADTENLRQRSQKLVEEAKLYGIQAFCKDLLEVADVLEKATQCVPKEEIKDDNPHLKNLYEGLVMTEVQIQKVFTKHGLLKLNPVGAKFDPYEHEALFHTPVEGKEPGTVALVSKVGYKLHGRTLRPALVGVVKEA
# UniProt Q9H6K5: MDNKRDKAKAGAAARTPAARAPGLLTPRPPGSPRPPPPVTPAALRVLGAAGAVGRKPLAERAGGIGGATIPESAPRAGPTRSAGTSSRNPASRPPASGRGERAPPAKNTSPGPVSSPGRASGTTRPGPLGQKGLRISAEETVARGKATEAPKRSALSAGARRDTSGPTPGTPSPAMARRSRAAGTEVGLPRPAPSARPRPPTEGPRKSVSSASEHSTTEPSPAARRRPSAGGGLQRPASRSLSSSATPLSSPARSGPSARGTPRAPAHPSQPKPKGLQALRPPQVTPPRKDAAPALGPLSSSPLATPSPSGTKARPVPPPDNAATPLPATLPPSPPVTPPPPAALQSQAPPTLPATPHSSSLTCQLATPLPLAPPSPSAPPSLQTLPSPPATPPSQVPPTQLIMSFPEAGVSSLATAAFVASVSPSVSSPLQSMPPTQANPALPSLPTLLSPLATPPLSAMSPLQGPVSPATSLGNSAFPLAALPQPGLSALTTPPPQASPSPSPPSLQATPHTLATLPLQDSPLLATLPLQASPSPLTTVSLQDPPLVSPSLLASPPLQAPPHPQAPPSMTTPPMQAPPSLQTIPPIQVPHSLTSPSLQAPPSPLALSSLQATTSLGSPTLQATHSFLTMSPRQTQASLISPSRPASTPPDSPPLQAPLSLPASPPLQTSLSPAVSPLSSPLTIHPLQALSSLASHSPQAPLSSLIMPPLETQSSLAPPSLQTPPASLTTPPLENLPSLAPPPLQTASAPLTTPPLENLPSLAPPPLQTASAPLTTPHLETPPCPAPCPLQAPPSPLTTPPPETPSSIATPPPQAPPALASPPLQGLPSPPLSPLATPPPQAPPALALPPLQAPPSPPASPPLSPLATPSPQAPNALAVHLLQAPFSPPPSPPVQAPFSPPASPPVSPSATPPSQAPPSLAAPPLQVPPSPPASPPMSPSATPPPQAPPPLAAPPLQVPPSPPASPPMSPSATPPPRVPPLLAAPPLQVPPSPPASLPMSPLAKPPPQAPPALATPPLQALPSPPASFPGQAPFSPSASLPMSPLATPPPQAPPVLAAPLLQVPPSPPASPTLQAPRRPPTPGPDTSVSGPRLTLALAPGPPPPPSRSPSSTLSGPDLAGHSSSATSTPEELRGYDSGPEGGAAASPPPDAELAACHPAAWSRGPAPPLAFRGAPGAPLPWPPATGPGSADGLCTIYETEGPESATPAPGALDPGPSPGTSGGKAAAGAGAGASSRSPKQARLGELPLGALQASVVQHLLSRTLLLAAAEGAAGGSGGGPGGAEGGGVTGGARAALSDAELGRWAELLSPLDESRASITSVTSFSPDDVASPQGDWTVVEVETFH
# UniProt Q9H9A5, whole entry: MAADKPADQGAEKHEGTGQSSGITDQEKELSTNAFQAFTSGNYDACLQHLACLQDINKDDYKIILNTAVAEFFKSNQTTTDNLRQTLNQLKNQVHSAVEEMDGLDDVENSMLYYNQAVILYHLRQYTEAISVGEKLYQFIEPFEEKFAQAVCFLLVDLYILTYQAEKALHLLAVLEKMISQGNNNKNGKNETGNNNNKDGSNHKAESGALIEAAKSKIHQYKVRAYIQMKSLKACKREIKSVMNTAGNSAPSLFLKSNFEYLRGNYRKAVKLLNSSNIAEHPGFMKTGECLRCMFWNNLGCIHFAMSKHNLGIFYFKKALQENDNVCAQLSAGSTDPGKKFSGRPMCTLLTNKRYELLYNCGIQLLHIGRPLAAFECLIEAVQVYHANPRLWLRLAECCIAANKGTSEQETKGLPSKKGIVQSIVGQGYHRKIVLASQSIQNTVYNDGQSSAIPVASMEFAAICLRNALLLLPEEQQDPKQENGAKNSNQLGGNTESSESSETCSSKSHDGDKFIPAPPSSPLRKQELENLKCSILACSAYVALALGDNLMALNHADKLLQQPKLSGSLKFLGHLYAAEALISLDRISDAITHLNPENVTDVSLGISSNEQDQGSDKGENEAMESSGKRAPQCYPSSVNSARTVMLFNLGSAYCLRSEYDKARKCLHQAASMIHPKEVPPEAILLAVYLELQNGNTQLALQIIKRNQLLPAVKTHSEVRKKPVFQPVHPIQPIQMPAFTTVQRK
# UniProt Q9NP87, whole entry: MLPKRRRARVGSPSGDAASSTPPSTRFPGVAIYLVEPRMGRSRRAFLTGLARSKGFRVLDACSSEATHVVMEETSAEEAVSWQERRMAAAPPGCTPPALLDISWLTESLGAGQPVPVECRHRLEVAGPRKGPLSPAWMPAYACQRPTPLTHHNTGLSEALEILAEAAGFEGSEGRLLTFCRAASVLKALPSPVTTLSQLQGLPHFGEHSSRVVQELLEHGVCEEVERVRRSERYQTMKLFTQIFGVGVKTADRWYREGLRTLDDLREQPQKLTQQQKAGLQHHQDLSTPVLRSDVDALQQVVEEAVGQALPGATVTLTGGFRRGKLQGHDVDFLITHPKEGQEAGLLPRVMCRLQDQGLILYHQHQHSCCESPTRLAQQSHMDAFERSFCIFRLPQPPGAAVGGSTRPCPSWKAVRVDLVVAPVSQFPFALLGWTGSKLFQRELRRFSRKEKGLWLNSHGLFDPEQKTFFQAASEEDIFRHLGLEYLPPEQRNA
# UniProt Q9H0W9: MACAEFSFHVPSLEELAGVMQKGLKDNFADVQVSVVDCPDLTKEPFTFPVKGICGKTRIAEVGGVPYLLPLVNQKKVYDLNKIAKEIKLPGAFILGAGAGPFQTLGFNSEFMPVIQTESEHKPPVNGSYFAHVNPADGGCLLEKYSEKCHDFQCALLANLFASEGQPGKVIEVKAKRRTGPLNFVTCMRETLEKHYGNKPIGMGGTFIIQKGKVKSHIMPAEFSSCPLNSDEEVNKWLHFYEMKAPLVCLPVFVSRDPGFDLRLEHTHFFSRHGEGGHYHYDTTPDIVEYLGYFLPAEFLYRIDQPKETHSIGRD
# UniProt Q9H0D6: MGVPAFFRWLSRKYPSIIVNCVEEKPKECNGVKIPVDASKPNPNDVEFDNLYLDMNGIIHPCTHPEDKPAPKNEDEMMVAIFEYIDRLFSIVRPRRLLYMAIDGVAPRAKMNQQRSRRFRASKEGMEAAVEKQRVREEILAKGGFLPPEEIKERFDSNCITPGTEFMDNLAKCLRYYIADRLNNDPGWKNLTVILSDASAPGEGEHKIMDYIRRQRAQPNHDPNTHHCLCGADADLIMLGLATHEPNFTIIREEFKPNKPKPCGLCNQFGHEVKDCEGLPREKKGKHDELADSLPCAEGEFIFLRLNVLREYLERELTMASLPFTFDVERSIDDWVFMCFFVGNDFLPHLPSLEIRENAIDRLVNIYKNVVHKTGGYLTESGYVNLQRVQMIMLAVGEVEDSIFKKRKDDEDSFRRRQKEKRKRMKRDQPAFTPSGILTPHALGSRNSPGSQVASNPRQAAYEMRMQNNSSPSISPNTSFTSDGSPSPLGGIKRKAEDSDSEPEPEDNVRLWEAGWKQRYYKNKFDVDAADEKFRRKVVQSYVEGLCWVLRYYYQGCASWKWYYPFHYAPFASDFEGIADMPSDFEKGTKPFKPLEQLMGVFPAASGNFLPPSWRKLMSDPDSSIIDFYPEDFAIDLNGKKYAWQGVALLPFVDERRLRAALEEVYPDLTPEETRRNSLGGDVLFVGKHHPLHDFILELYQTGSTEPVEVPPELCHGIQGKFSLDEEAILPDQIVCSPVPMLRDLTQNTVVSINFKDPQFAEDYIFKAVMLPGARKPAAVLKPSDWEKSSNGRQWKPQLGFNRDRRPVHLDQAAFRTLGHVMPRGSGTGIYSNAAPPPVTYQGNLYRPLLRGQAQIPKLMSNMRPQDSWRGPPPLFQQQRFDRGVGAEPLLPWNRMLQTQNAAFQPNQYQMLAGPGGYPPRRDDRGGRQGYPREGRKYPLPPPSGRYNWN
# UniProt Q9C0B5: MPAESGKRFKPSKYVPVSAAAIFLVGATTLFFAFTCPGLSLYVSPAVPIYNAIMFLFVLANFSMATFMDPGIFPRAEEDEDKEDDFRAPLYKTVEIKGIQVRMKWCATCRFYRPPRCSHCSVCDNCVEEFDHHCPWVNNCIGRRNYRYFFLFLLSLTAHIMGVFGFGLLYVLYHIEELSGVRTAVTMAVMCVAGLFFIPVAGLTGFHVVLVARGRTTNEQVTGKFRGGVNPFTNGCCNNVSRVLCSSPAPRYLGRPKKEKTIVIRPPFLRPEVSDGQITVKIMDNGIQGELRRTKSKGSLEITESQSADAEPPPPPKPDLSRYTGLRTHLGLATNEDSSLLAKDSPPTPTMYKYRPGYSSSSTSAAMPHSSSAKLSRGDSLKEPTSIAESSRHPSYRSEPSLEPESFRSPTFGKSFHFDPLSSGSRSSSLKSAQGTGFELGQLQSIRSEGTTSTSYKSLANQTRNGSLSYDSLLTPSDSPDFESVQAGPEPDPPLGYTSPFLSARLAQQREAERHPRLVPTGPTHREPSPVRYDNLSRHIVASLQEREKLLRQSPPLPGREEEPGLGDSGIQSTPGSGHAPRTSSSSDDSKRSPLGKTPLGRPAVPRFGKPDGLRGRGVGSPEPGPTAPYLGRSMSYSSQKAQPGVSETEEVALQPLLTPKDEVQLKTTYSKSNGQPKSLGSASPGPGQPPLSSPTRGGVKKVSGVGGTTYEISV
# UniProt Q9H9B4: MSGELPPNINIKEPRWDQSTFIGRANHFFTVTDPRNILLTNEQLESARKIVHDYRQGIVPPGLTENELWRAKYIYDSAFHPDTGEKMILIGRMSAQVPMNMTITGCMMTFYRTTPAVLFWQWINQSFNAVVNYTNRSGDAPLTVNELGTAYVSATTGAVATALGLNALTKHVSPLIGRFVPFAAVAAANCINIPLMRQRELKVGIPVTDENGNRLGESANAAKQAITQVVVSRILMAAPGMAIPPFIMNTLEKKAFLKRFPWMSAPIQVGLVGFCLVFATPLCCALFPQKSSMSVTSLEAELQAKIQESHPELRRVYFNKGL
# UniProt Q9H079: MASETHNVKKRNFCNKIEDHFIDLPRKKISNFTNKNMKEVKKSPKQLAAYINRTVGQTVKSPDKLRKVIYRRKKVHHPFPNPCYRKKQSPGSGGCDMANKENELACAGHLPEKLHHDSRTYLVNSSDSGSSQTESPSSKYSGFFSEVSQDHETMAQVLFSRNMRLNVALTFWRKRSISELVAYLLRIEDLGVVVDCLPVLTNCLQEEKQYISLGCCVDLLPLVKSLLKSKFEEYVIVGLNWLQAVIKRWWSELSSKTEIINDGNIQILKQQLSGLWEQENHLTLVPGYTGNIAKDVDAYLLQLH
# ± gives the standard deviation of the averaged measurements. Only a part is listed here, and it is no random draw. Most values lie at the level of the controls, where differences are scatter.
# Compound: Nc1ncnc2c1ncn2[C@@H]1O[C@H](COP(=O)(O)OP(=O)(O)NP(=O)(O)O)[C@@H](O)[C@H]1O [adenylyl imidodiphosphate]
# Assay: NP40-soluble protein abundance relative to vehicle (solubility fold change) (ratio); higher = more soluble protein in presence of AMP-PNP
# Outline: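 Jurkat crude lysate prepared with a Dounce homogeniser was treated at eight concentrations spanning 0.1 to 10 mM, 10 min at room temperature then 3 min at 37 °C. Solubilisation with 0.8% NP40 and benzonase and ultracentrifugation preceded TMT labelling of the supernatant for LC-MS/MS. Fold change against the detergent-processed vehicle was determined per replicate from vsn-normalised intensities, across three independent experiments.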
Target,NP40-soluble protein abundance (concentration: 0.1mM),NP40-soluble protein abundance (concentration: 0.5mM)
UniProt Q9H832 and related entries,1.01 ± 0.038,0.976 ± 0.026
UniProt Q9H2D6-5|Q9H2D6 and related entries,0.973 ± 0.022,0.967 ± 0.026
UniProt Q9C0D3 and related entries,1.04 ± 0.046,0.996 ± 0.05
UniProt Q9H4L7 and related entries,0.9931 ± 0.0058,0.98 ± 0.033
UniProt Q9H0C5 and related entries,0.985 ± 0.034,0.947 ± 0.1
UniProt Q9H7Z3,1.01 ± 0.044,1.02 ± 0.058
SUDS3 (UniProt Q9H7L9),0.956 ± 0.018,0.985 ± 0.057
UniProt Q9H0S4 and related entries,1.05 ± 0.029,1.05 ± 0.057
UniProt Q9BZI7 and related entries,1.02 ± 0.034,1.01 ± 0.026
UniProt Q9BZV1 and related entries,1.01 ± 0.02,0.977 ± 0.02
TOLLIP (UniProt Q9H0E2),0.98 ± 0.016,0.9861 ± 0.0082
SEPSECS (UniProt Q9HD40),1.01 ± 0.011,0.968 ± 0.05
PDF (UniProt Q9HBH1),0.994 ± 0.047,0.986 ± 0.046
DYNLRB1 (UniProt Q9NP97),1.02 ± 0.031,1.06 ± 0.084
UniProt Q9HCJ3 and related entries,0.9845 ± 0.0035,0.969 ± 0.021
PTPN23 (UniProt Q9H3S7),1.01 ± 0.018,1.01 ± 0.028
DEF6 (UniProt Q9H4E7),0.999 ± 0.013,1.01 ± 0.018
UniProt Q9H0F6 and related entries,1.04 ± 0.058,1.03 ± 0.015
UniProt Q9NPA3,1 ± 0.014,0.997 ± 0.02
UniProt Q9BZL1,1.01 ± 0.049,0.996 ± 0.021

Target,NP40-soluble protein abundance (concentration: 0.1mM),NP40-soluble protein abundance (concentration: 0.5mM)
UniProt Q9HCC0-2,0.97 ± 0.016,0.9874 ± 0.0025
ZHX3 (UniProt Q9H4I2),1.01 ± 0.041,1.02 ± 0.061
GRPEL1 (UniProt Q9HAV7),0.957 ± 0.066,0.973 ± 0.07
UniProt Q9HBL7,1.02 ± 0.056,1.03 ± 0.033
WDR33 (UniProt Q9C0J8),0.996 ± 0.015,1.02 ± 0.022
WDR54 (UniProt Q9H977),1.02 ± 0.027,0.992 ± 0.022
UniProt Q9H6K5 and related entries,0.998 ± 0.013,0.974 ± 0.032
UniProt Q9GZR1 and related entries,0.983 ± 0.017,0.993 ± 0.019
SPC25 (UniProt Q9HBM1),0.994 ± 0.031,0.999 ± 0.059
PELI2 (UniProt Q9HAT8),0.988 ± 0.017,0.993 ± 0.031
ZNF407 (UniProt Q9C0G0),0.983 ± 0.033,0.988 ± 0.024
UniProt Q9HDC9,0.994 ± 0.015,0.9611 ± 0.0083
UniProt Q9H9A5 and related entries,1.01 ± 0.033,0.974 ± 0.029
UniProt Q9NP87,1.01 ± 0.032,1.05 ± 0.046
UniProt Q9BZL4-4|Q9BZL4,1.03 ± 0.014,0.994 ± 0.021
GPN2 (UniProt Q9H9Y4),0.991 ± 0.01,0.996 ± 0.044
UniProt Q9H0W9 and related entries,0.977 ± 0.022,0.988 ± 0.02
RAB3GAP2 (UniProt Q9H2M9),1.02 ± 0.017,0.986 ± 0.037
RABEP2 (UniProt Q9H5N1),0.998 ± 0.026,0.986 ± 0.064
UniProt Q9HCM4 and related entries,0.996 ± 0.035,0.996 ± 0.042

Target,NP40-soluble protein abundance (concentration: 0.1mM),NP40-soluble protein abundance (concentration: 0.5mM)
UniProt Q9H1I8 and related entries,1.01 ± 0.018,1.02 ± 0.023
MED20 (UniProt Q9H944),0.987 ± 0.034,1.01 ± 0.044
UniProt Q9H7H0 and related entries,1.01 ± 0.047,0.975 ± 0.029
XRN2 (UniProt Q9H0D6),0.982 ± 0.036,0.999 ± 0.032
UniProt Q9C0B5 and related entries,1.01 ± 0.03,1.02 ± 0.017
CSTF2T (UniProt Q9H0L4),1 ± 0.041,0.985 ± 0.047
UniProt Q9H7C9 and related entries,0.955 ± 0.021,1.02 ± 0.061
RAB1B (UniProt Q9H0U4),0.9566 ± 0.0079,0.998 ± 0.031
UniProt Q9H078-2,1.03 ± 0.036,1.01 ± 0.014
ATG5 (UniProt Q9H1Y0),0.999 ± 0.047,1.03 ± 0.031
VPS33B (UniProt Q9H267),0.984 ± 0.016,0.95 ± 0.056
UniProt Q9HCD6 and related entries,1.015 ± 0.0024,1.006 ± 0.0072
UniProt Q9HD20 and related entries,1.02 ± 0.013,1.04 ± 0.054
Q9NPA5 and related entries (UniProt Q9NTW7),0.98 ± 0.014,0.996 ± 0.02
SFXN1 (UniProt Q9H9B4),0.991 ± 0.022,0.98 ± 0.02
ACBD3 (UniProt Q9H3P7),1 ± 0.032,0.989 ± 0.024
UniProt Q9HCN4 and related entries,0.98 ± 0.031,0.9965 ± 0.0097
YTHDC2 (UniProt Q9H6S0),1.05 ± 0.025,1.03 ± 0.023
KATNBL1 (UniProt Q9H079),0.993 ± 0.013,1.01 ± 0.025
UniProt Q9H773 and related entries,1.017 ± 0.002,1.05 ± 0.026

# Look-ups from the entries so far.
# In NP40-soluble protein abundance (concentration: 0.5mM), UniProt Q9H1I8 and related entries reads 1.02 ± 0.023
# In NP40-soluble protein abundance (concentration: 0.5mM), KATNBL1 (UniProt Q9H079) reads 1.01 ± 0.025
